Assay results: doi:10.1101/2024.12.20.629444

Amino acid sequences for entries named in this document (tags omitted).
UniProt P46937: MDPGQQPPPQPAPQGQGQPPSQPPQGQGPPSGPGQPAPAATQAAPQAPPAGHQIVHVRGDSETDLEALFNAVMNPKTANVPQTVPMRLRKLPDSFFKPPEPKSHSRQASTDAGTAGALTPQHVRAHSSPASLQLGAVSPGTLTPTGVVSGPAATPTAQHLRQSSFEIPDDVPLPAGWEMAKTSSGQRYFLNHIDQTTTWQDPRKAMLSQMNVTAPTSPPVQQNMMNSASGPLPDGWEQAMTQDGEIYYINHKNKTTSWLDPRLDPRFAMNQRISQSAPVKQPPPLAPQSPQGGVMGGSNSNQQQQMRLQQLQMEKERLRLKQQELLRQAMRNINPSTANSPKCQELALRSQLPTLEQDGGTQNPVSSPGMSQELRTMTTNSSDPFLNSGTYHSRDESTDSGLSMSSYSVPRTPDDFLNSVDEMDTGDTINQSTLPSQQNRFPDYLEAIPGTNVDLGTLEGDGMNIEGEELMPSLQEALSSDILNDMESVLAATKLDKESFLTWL
UniProt Q5UIP0: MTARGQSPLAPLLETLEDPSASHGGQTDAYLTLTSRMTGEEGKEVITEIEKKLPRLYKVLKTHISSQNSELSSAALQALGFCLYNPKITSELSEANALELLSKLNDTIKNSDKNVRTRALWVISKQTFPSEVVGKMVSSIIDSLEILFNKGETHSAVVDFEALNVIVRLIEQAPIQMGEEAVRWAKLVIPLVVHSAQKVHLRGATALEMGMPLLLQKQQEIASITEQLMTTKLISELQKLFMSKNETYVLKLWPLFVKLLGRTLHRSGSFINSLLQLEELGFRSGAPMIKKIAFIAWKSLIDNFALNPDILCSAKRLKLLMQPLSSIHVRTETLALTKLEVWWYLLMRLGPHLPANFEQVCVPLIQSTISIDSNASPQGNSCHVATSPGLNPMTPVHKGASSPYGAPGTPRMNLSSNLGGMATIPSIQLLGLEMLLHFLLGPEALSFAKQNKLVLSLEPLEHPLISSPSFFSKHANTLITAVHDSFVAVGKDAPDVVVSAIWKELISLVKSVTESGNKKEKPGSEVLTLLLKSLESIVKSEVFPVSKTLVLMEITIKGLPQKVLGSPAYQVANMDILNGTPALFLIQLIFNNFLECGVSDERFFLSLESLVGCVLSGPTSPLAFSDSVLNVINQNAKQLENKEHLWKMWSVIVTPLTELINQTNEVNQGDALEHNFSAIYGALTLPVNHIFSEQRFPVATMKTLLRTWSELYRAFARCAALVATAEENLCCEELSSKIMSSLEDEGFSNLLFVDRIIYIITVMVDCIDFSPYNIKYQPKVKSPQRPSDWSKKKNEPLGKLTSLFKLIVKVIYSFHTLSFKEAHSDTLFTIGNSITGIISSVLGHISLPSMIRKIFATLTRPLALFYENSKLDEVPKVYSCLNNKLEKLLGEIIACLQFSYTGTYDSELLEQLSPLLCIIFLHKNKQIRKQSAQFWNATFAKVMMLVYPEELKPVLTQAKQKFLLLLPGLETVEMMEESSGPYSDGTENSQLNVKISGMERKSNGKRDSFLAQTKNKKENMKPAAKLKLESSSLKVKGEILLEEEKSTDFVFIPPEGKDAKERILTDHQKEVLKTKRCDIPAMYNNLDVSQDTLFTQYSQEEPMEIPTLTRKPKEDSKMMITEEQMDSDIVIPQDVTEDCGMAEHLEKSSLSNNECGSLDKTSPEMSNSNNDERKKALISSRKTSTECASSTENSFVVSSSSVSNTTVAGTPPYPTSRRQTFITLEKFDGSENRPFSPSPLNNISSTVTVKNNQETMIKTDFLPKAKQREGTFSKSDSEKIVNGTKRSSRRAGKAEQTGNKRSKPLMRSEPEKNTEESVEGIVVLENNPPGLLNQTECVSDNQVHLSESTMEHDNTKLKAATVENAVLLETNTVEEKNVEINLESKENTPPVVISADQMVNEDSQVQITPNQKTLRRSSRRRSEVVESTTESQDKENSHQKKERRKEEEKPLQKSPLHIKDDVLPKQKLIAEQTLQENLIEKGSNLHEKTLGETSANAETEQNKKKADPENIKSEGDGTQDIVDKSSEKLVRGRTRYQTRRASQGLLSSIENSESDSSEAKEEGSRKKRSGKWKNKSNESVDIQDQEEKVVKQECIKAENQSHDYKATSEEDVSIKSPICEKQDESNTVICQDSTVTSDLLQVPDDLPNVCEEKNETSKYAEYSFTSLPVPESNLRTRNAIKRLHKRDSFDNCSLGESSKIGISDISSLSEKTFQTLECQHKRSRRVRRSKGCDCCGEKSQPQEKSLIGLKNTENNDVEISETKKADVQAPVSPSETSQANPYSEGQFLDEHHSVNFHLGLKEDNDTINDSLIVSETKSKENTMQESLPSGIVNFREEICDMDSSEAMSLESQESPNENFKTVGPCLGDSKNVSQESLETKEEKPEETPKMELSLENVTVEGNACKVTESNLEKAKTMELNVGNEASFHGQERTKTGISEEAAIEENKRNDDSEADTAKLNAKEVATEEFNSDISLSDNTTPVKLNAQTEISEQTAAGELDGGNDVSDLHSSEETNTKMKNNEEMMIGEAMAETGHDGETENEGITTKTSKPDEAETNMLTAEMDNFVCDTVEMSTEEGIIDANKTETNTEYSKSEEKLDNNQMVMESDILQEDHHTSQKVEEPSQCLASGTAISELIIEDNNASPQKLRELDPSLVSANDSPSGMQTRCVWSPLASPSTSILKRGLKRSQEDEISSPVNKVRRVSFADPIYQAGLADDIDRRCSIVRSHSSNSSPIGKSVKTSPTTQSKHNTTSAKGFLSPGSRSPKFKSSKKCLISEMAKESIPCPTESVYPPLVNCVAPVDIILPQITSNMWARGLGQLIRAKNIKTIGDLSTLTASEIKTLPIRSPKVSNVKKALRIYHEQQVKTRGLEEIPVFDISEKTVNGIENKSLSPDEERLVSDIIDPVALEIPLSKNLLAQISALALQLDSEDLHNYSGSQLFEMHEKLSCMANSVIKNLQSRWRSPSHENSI
UniProt Q969G3: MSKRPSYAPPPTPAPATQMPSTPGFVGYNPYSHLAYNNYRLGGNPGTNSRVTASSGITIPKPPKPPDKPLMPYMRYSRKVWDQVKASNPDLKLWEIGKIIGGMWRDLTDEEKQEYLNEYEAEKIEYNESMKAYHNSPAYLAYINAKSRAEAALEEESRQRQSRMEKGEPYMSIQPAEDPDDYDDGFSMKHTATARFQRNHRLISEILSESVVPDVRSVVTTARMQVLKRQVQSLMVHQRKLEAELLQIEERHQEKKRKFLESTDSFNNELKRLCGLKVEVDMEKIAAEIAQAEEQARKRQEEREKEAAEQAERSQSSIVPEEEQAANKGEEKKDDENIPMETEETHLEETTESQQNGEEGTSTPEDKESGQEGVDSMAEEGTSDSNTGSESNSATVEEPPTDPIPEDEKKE
UniProt Q92922: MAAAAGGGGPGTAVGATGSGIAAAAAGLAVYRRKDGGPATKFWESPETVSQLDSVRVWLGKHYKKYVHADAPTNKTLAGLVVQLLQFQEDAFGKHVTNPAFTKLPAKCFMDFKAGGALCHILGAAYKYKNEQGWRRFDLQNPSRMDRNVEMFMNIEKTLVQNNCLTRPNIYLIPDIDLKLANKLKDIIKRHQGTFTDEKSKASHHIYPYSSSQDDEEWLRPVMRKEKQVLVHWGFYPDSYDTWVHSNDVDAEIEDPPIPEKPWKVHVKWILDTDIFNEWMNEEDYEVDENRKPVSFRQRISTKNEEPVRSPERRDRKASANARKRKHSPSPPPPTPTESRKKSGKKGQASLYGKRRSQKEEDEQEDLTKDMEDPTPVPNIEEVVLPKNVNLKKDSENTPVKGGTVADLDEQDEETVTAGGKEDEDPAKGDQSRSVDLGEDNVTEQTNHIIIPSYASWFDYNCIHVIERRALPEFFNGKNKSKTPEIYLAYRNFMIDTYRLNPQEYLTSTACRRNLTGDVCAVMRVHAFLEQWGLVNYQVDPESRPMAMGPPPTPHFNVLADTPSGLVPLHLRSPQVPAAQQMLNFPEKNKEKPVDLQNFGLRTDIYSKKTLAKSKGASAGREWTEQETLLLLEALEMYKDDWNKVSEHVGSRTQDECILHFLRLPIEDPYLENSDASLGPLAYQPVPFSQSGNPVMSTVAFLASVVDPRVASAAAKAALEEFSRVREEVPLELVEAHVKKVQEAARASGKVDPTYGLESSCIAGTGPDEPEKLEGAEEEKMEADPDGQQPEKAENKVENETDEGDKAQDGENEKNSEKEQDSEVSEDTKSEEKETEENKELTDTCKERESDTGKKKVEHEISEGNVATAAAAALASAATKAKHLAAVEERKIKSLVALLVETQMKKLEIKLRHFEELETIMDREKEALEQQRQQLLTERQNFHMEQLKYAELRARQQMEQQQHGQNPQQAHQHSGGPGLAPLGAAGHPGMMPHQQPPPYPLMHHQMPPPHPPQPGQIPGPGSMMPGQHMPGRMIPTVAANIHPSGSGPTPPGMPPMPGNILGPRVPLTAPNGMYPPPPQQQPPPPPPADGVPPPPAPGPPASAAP
UniProt Q14839: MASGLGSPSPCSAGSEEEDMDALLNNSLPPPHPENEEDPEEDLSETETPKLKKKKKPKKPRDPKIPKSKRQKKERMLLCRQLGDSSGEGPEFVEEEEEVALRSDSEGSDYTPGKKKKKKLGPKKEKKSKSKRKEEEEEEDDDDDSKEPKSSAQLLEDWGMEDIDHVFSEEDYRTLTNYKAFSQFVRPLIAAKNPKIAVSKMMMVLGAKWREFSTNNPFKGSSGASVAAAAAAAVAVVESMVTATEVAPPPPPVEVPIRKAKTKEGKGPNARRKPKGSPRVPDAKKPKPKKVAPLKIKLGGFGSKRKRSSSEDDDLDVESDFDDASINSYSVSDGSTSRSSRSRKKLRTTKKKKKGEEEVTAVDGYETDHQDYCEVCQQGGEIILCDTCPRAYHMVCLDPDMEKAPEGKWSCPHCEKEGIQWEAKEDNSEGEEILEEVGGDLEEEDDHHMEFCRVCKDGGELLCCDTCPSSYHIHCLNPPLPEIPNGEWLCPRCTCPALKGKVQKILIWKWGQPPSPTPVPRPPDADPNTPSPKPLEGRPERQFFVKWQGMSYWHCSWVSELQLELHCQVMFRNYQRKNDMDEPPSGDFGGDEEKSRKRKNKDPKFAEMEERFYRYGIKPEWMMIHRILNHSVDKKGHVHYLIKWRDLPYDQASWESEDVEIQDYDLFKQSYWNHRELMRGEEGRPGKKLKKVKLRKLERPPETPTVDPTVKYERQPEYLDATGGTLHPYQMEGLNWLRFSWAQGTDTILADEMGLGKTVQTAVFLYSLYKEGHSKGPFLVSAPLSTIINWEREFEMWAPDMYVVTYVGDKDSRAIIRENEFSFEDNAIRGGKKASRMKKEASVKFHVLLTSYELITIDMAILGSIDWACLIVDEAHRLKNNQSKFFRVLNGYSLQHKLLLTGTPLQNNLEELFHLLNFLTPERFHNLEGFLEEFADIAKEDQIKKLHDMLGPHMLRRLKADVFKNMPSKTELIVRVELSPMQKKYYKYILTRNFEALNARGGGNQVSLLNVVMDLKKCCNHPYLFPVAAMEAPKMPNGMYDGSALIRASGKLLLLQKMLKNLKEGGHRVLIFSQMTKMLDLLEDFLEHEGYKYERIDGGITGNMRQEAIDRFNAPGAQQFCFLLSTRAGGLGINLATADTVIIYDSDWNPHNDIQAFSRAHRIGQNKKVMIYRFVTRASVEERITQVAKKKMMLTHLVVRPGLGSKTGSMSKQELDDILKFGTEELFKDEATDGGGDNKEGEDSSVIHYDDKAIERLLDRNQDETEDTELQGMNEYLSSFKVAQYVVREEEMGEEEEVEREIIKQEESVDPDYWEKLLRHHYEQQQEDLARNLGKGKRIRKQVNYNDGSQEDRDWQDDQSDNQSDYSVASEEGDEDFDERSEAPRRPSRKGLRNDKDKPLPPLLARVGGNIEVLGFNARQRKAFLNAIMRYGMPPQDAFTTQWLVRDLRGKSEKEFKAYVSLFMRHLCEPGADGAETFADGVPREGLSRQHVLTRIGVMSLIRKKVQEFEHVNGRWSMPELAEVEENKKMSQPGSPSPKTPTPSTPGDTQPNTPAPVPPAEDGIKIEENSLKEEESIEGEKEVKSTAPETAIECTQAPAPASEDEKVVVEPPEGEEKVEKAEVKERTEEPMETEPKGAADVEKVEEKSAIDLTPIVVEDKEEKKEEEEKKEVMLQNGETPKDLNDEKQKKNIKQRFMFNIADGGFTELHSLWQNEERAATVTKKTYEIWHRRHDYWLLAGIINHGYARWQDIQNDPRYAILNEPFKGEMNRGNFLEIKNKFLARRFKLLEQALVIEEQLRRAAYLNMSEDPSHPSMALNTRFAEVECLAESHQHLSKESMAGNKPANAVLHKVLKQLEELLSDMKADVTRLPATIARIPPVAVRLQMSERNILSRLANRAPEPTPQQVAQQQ

B1: Angiomiotin-like 1 (protein, UniProt Q8IY63 1-956)
chain: MWRAKLRRGTCEPAVKGSPSACYSPSSPVQVLEDSTYFSPDFQLYSGRHETSALTVEATSSIREKVVEDPLCNFHSPNFLRISEVEMRGSEDAAAGTVLQRLIQEQLRYGTPTENMNLLAIQHQATGSAGPAHPTNNFSSTENLTQEDPQMVYQSARQEPQGQEHQVDNTVMEKQVRSTQPQQNNEELPTYEEAKAQSQFFRGQQQQQQQQGAVGHGYYMAGGTSQKSRTEGRPTVNRANSGQAHKDEALKELKQGHVRSLSERIMQLSLERNGAKQHLPGSGNGKGFKVGGGPSPAQPAGKVLDPRGPPPEYPFKTKQMMSPVSKTQEHGLFYGDQHPGMLHEMVKPYPAPQPVRTDVAVLRYQPPPEYGVTSRPCQLPFPSTMQQHSPMSSQTSSASGPLHSVSLPLPLPMALGAPQPPPAASPSQQLGPDAFAIVERAQQMVEILTEENRVLHQELQGYYDNADKLHKFEKELQRISEAYESLVKSTTKRESLDKAMRNKLEGEIRRLHDFNRDLRDRLETANRQLSSREYEGHEDKAAEGHYASQNKEFLKEKEKLEMELAAVRTASEDHRRHIEILDQALSNAQARVIKLEEELREKQAYVEKVEKLQQALTQLQSACEKREQMERRLRTWLERELDALRTQQKHGNGQPANMPEYNAPALLELVREKEERILALEADMTKWEQKYLEESTIRHFAMNAAATAAAERDTTIINHSRNGSYGESSLEAHIWQEEEEVVQANRRCQDMEYTIKNLHAKIIEKDAMIKVLQQRSRKDAGKTDSSSLRPARSVPSIAAATGTHSRQTSLTSSQLAEEKKEEKTWKGSIGLLLGKEHHEHASAPLLPPPPTSALSSIASTTAASSAHAKTGSKDSSTQTDKSAELFWPSMASLPSRGRLSTTPAHSPVLKHPAAKGTAEKLENSPGHGKSPDHRGRVSSLLHKPEFPDGEMMEVLI

Molecular target: Yes-associated protein (human (endogenous in SCC13, NHK and HARA)) (UniProt P46937)
Experiment: affinity purification with mass spectrometry

Molecule | binding
RIF1 (from UniProt Q5UIP0 1-2472) | binds

Molecular target: Yes-associated protein (human (endogenous in SCC13, NHK and HARA)) (UniProt P46937)
Experiment: affinity purification with mass spectrometry
Remark: another data set of the same source

Molecule | binding
SWI/SNF-related matrix-associated actin-dependent regulator of chromatin subfamily E member 1 (from UniProt Q969G3 1-411) | binds
PPP1CB, one the catalytic subunits of protein phosphatase 1 (PP1) (from UniProt P62140 1-327) (enzyme) | binds
GTF21 (from UniProt P78347 1-998) | binds
SWI/SNF-related matrix-associated actin-dependent regulator of chromatin subfamily D member 2 (from UniProt Q92925 1-531) | binds
TOP1 (from UniProt P11387 1-765) (enzyme) | binds
SWI/SNF-related matrix-associated actin-dependent regulator of chromatin subfamily C member 1 (from UniProt Q92922 1-1105) | binds
Prolyl 4-Hydroxylase subunit alpha 2 (from UniProt O15460 22-535) (enzyme) | binds
Chromodomain-helicase-DNA-binding protein 4 (from UniProt Q14839 1-1912) | binds
RIF1 (from UniProt Q5UIP0 1-2472) | binds
B1 | binds

No constants are given. Whether binding was seen depends on the method and setting. Binding seen in cells or lysates may run through a third protein. Here binding means that the protein was enriched with, or labelled near, the bait; the list need not be complete.
